This is one part of the list. The main result of the screen is listed elsewhere. These columns were measured beside it and carry no call.
Experiment: protection against mutant huntingtin cytotoxicity, PC12 cells, LDH release (AID 1610)
Details: PC12 mutant huntingtin toxicity, final LDH at 4 uM, stronger effect = lower value

Row | Compound | normalised LDH release
1 | CC(=O)CCC1C2=NC(=C\C3=NC(=C(/C)C4=NC(C)(C5[N-]/C(=C\2C)C(C)(CCC(=O)NCC(C)OP(=O)(O)O[C@@H]2[C@@H](CO)OC(n6cnc7cc(C)c(C)cc76)[C@@H]2O)C5CC(N)=O)C(C)(CC(N)=O)C4CCC(N)=O)/C(C)(CC(N)=O)C3CCC(N)=O)/C1(C)C.[CH2-][C@H]1OC(n2cnc3c(N)ncnc32)[C@H](O)[C@@H]1O.[Co+2] (stereo partly specified) | 0.561
2 | CC(=O)[C@@]1(O)CCC2C3C=C(Cl)C4=CC(=O)[C@@H]5CC5[C@]4(C)C3CC[C@@]21C (stereo partly specified) | 1.07
3 | CC(=O)N[C@@H]1[C@@H](C(O)[C@H](O)CO)O[C@](O)(C(=O)O)C[C@@H]1O (stereo partly specified) | 1.37
4 | Oc1c(Br)cc(Br)c2cccnc12 | 0.607
5 | CC(CN(C)C)CN1c2ccccc2Sc2ccccc21 (stereo unspecified) | 0.637
7 | CC(=O)Nc1ccc(OCC(O)CNC(C)C)cc1 (stereo unspecified) | 0.224
8 | CCN(CC)CCCC(C)Nc1ccnc2cc(Cl)ccc12 (stereo unspecified) | 1.06
9 | CCn1cc(C(=O)O)c(=O)c2cnc(N3CCCC3)nc21 | 1.11
10 | NC(N)=NS(=O)(=O)c1ccc(N)cc1 | 1.17
11 | Cc1ccccc1OCC(O)CO (stereo unspecified) | 0.815
12 | CCCCNc1cc(C(=O)O)cc(S(N)(=O)=O)c1Oc1ccccc1 | 0.839
13 | CCc1cc(C(N)=S)ccn1 | 1.05
14 | CC(=O)N1CCN(c2ccc(OCC3CO[C@](Cn4ccnc4)(c4ccc(Cl)cc4Cl)O3)cc2)CC1 (stereo partly specified) | 0.819
15 | C[C@]12C=CC(=O)C=C1CCC1C2[C@@H](O)C[C@@]2(C)C1CC[C@]2(O)C(=O)CO (stereo partly specified) | 0.62
16 | CNC(C)[C@@H]1CC[C@@H](N)[C@@H](OC2[C@@H](N)C[C@@H](N)[C@H](OC3OC[C@](C)(O)[C@H](NC)[C@H]3O)[C@H]2O)O1 (stereo partly specified) | 0.793

A draw from above in order of molecular weight, low to high.
Row | Compound | normalised LDH release
7 | CC(=O)Nc1ccc(OCC(O)CNC(C)C)cc1 (stereo unspecified) | 0.224
9 | CCn1cc(C(=O)O)c(=O)c2cnc(N3CCCC3)nc21 | 1.11
2 | CC(=O)[C@@]1(O)CCC2C3C=C(Cl)C4=CC(=O)[C@@H]5CC5[C@]4(C)C3CC[C@@]21C (stereo partly specified) | 1.07

From PubChem BioAssay
